Results from paper PMC4290084, “Multiplex Imaging and Cellular Target Identification of Kinase Inhibitors via an Affinity-Based Proteome Profiling Approach” (Scientific Reports, 2015).
Results are given in words; binding and its absence hold for the method and conditions named. Binding seen in cells or lysates may run through a third protein. Some entries that bind do so weakly or less than the wild type.

Protein sequences, listed by entry. Tags and fused reporters are not part of them. Residues count along the entry.
UniProt P06493: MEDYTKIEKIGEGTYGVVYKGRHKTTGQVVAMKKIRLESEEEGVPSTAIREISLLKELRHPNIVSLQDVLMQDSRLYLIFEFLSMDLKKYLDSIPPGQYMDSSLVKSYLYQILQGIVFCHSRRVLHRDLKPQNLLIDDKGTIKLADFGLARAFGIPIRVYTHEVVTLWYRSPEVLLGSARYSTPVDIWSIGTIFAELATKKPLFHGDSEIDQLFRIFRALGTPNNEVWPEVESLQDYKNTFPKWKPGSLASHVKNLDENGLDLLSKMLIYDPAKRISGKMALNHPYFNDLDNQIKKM
UniProt P30101, residues 25-505: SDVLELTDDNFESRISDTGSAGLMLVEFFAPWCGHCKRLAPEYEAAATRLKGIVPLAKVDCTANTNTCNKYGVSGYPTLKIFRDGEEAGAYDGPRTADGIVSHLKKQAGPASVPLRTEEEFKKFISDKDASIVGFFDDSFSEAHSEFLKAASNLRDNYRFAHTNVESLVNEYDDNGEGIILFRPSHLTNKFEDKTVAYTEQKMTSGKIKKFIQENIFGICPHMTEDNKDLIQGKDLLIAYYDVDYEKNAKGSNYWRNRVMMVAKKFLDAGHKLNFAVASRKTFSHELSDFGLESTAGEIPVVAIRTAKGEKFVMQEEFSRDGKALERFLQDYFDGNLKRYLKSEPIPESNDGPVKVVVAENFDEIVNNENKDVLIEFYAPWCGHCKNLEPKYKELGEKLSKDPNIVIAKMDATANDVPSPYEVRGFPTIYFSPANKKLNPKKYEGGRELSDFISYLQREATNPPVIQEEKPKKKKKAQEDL
UniProt Q9Y266: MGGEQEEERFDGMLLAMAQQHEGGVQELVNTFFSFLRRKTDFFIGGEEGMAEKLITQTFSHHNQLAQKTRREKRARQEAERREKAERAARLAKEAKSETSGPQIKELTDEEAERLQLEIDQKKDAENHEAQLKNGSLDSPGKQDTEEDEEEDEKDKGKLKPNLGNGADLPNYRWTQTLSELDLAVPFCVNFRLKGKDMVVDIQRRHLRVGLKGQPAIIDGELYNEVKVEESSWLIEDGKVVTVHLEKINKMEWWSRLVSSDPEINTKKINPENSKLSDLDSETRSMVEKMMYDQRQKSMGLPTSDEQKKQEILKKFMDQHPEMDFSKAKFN

T1: Aurora kinase A (human (endogenous in HeLa)) (UniProt O14965)
T1 sequence: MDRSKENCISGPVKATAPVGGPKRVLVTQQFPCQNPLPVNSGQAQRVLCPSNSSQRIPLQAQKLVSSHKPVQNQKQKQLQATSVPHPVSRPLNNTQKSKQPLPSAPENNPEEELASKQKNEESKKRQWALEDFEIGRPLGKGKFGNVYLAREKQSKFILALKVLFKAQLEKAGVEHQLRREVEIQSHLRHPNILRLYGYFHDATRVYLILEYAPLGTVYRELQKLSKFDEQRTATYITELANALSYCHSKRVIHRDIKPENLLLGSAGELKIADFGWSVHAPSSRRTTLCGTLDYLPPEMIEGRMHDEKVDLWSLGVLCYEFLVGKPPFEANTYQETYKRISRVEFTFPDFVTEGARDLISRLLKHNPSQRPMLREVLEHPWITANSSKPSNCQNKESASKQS


Legend:
Assay in all cases: co-IP; synchronized HeLa cells lysed in RIPA buffer (50 mM Tris pH 8, 150 mM NaCl, 1% NP-40, 0.5% deoxycholate, 0.1% SDS), lysate adjusted with PBS to 5 mg/mL; antibody (anti-AKA, anti-CDK1 or anti-ERP57) cross-linked to beads (Pierce Co-Immunoprecipitation Kit), 12 h at 4°C; detected by WB with anti-AKA, anti-CDK1 and anti-NUDC
[1] = target: T1, Aurora kinase A (human (endogenous in HeLa))
[2] = target: CDK1 (human (endogenous in HeLa)) (UniProt P06493)
[3] = target: ERP57 (human (endogenous in HeLa)) (UniProt P30101)

binding [1]	binding [2]	binding [3]	Molecule
binds	no binding	no binding	NUDC (from UniProt Q9Y266 1-331)
–	binds	no binding	Aurora kinase A (enzyme, UniProt O14965 1-403) MDRSKENCISGPVKATAPVGGPKRVLVTQQFPCQNPLPVNSGQAQRVLCPSNSSQRIPLQAQKLVSSHKPVQNQKQKQLQATSVPHPVSRPLNNTQKSKQPLPSAPENNPEEELASKQKNEESKKRQWALEDFEIGRPLGKGKFGNVYLAREKQSKFILALKVLFKAQLEKAGVEHQLRREVEIQSHLRHPNILRLYGYFHDATRVYLILEYAPLGTVYRELQKLSKFDEQRTATYITELANALSYCHSKRVIHRDIKPENLLLGSAGELKIADFGWSVHAPSSRRTTLCGTLDYLPPEMIEGRMHDEKVDLWSLGVLCYEFLVGKPPFEANTYQETYKRISRVEFTFPDFVTEGARDLISRLLKHNPSQRPMLREVLEHPWITANSSKPSNCQNKESASKQS
